Data source: PubChem BioAssay AID1508597 (Cure First, 2020)

Assay: 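Genes whose silencing sensitises or protects ovarian cancer cells against rucaparib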 (primary screen)
Cells: human ovarian carcinoma lines grown from tumours: OCI-P5x (papillary serous) and OCI-C5x (clear cell)
Reagent: siRNA pool against human genes, 1.25 pmol siRNA per well
Timing: 72 h or 96 h, depending on the cell culture
Conditions: rucaparib 20 µM (about IC30) or vehicle, present until read-out
Rucaparib or vehicle: Vehicle
Cell line: OCI-C5x (clear cell)
Measurement: 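ATP luminescence measured at 72 or 96 h according to the culture, then normalised and expressed as percent viability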
Direction: viability, normalised: higher = more viable cells remaining
Active means: 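a well counts as a hit if its normalised viability is under 80 percent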
Calls: active = viability under 80%; inactive = viability 80% or more
This is an unselected part of the about 2,100 reagents, in one setting of the screen. 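Calls flag viability under 80% in either arm, not effects specific to rucaparib; the reference for percent is not stated.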 Unmarked entries are inactive. The record does not give: the 100% reference.

SMPDL3A (GeneID 10924), technical replicate 1 | viability, normalised (%): 65.3 (active)
SMPDL3A (GeneID 10924), technical replicate 2 | viability, normalised (%): 45.4 (active)
SMPDL3A (GeneID 10924), technical replicate 3 | viability, normalised (%): 41.4 (active)
STK36 (GeneID 27148), technical replicate 1 | viability, normalised (%): 65.9 (active)
STK36 (GeneID 27148), technical replicate 2 | viability, normalised (%): 61.8 (active)
STK36 (GeneID 27148), technical replicate 3 | viability, normalised (%): 55.6 (active)
AEBP2 (GeneID 121536), technical replicate 1 | viability, normalised (%): 70.3 (active)
AEBP2 (GeneID 121536), technical replicate 2 | viability, normalised (%): 44.1 (active)
AEBP2 (GeneID 121536), technical replicate 3 | viability, normalised (%): 60.4 (active)
NEK5 (GeneID 341676), technical replicate 1 | viability, normalised (%): 74 (active)
NEK5 (GeneID 341676), technical replicate 2 | viability, normalised (%): 63.9 (active)
NEK5 (GeneID 341676), technical replicate 3 | viability, normalised (%): 66.7 (active)

As entered above.
STK36 (GeneID 27148), technical replicate 2, viability, normalised (%): 61.8 (active)
For “viability, normalised (%)”, SMPDL3A (GeneID 10924), technical replicate 2 has 45.4 (active)
